For at least one compound, name, drawing or mass did not settle the structure.
System: mcCAR, FRB-mcCAR and FKB-mcCAR constructs
Assay: Rapamycin effect on surface detection of control mcCAR constructs (flow cytometry)
Format: cell-based
Settings: rapamycin 100 nM, 20 h; constructs without both FKBP and FRB

## CO[C@H]1C[C@@H]2CC[C@@H](C)[C@@](O)(O2)C(=O)C(=O)N2CCCC[C@H]2C(=O)O[C@H]([C@H](C)C[C@@H]2CC[C@@H](O)[C@H](OC)C2)CC(=O)[C@H](C)/C=C(\C)[C@@H](O)[C@@H](OC)C(=O)[C@H](C)C[C@H](C)/C=C/C=C/C=C/1C [rapamycin]
  effect of rapamycin on percentage of positive cells or MFI: barely effected

Source: patent publication US10988542B2, “Chimeric antigen receptors with integrated controllable functions” (CELLECTIS, priority 2015, dated 2021)
